At least one compound was matched to its structure with a doubt left.
Test system: Rhodococcus erythropolis wild type and mutant strain
Experiment: Comparison of wild type and mutant strain for sensitivity to antibiotics
Format: cell-based
Conditions: determined similarly to the ampicillin test
Description: The sensitivity of Rhodococcus erythropolis strain L-65 and L-88 to ampicillin was determined in the same manner as in Example 1. To explain more specifically, the bacterial cells of each strain were inoculated in LB medium and cultured with shaking at 30° C. A part of the culture solution was taken in the middle of logarithmic growth period and diluted with fresh LB medium so as to contain 1×10^5, 1×10^4, 1×10^3, 1×10^2, and […] cells in 10 μl of the LB medium. The diluted culture solutions thus prepared were dropped onto each of LB agar mediums containing lysozyme in concentrations of 15, 10, 1, and 0.1 μg/ml. After the mediums were cultured at 30° C. for 2 days and the presence or absence of bacterial cells grown on the mediums was checked. In this manner, the minimum growth inhibition concentration was determined (Table 2).

SMILES | Difference in sensitivity between wild type and mutant strain
NC[C@H]1O[C@H](O[C@H]2[C@H](O)[C@@H](O[C@H]3O[C@H](CO)[C@@H](O)[C@H](N)[C@H]3O)[C@H](N)C[C@@H]2N)[C@H](O)[C@@H](O)[C@@H]1O [kanamycin] | no significant difference was observed
CN(C)[C@@H]1C(O)=C(C(N)=O)C(=O)[C@@]2(O)C(O)=C3C(=O)c4c(O)cccc4[C@@](C)(O)[C@H]3C[C@@H]12 [tetracycline] | no significant difference was observed

Source: patent publication US7354754B2, “Microorganism sensitive to lysozyme” (National Institute of Advanced Industrial Science and …, priority 2002, dated 2008)
